Experimental data: PubChem BioAssay AID504444 (National Center for Advancing Translational Sciences (NCATS), 2011)
Hit rate of the full screen: of about 360,000 compounds, about 7,500 (2.1%) were called active. Inconclusive means that the source gave no clear call. Such entries were picked first, then a sample of the others. Calls come from the whole dose curve; as a rule, active = well fitted inhibition curve with a large enough effect; inconclusive = small, poorly fitted or top-dose-only effect, or effect the other way; inactive = flat fitted curve, though single readings scatter. Potencies beside an inconclusive call are fits to weak or partial responses and may not hold up.

Test: Nrf2 qHTS screen for inhibitors; note: nearly all actives have a fitted effect of over 60% in size
Details: A549 ARE-Fluc reporter, luciferase luminescence, 18-24 h; activity change, negative = inhibition: at 46 µM (top of the series)
Summary of the method: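 A549 ARE_Fluc cells, 5000/well, 5% FBS OPTI-MEM; compounds in dose-response, 18-24 h at 37 °C/5% CO2; CellTiter-Fluor viability read (Ex 405/Em 525), then BugLite luciferase luminescence = Nrf2 activity.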
% is set by controls: 0 for no effect and ±100 for the full control effect; potency is the fitted concentration of half-maximal effect.

| Compound | Potency | activity change, negative = inhibition |
| --- | --- | --- |
| COc1ccccc1N(C(=O)c1snc(C(N)=O)c1N)C(C(=O)NCc1ccccc1)c1ccc(C)o1 (stereo unspecified) | inconclusive: 29.1 µM [falling, single point] |  |
| O=C(NCCN1CCN(C(=O)c2c(F)cccc2F)CC1)C(=O)Nc1ccc(Cl)cc1 |  | inactive: -29.1% |
| CCCCNC(=O)C1=CC(c2ccc3c(c2)OCO3)=NS(=O)(=O)N1C | inconclusive: 14.6 µM [activator, partial curve] |  |
| C/C(=N\NC(=O)c1cccc(N/N=C(\C)c2cc(O)ccc2O)c1)c1cc(O)ccc1O | inconclusive: 32.6 µM [falling, single point] |  |
| COc1ccc(C(=O)C=CNNC(=O)c2ccc(Cl)cc2)cc1 | inconclusive: 18.4 µM [falling, single point] |  |
| O=C1c2[nH]nc(-c3ccccc3)c2C(c2ccccc2)N1c1cccc(C(F)(F)F)c1 (stereo unspecified) | inconclusive: 18.4 µM [falling, single point] |  |
| S=c1[nH]nc(CSCc2ccc(Cl)cc2Cl)n1-c1ccccc1 | inconclusive: 20.6 µM [falling, single point] |  |
| O=C(Nc1nc2nccc(-c3ccccc3)n2n1)C(Cl)(Cl)Cl | inconclusive: 7.31 µM [activator, partial curve, poor fit] |  |
| COc1ccccc1NC(=O)C(NC(=O)OC(C)(C)C)C(C)OCc1ccccc1 (stereo unspecified) | active: 23.1 µM |  |
| Cc1ccc(C(=O)CSc2nc(C)cc(SCc3nnc(-c4ccccc4)o3)n2)cc1 | inconclusive: 29.1 µM [falling, single point] |  |
| Cc1cc2c(C)nc(N/N=C/c3ccc(F)cc3)nc2o1 | inconclusive: 6.51 µM [activator, partial curve] |  |
| CCc1ccc(CNc2ccc(O)cc2)cc1 | inconclusive: 18.4 µM [falling, partial curve, poor fit] |  |
| Cc1ccc(NC(=O)CCCn2c3ccccc3c(=O)c3cc(C)ccc32)c(Br)c1 | inconclusive: 32.6 µM [falling, partial curve, poor fit] |  |
| Cc1cc(C)cc(NC(=O)C(NS(=O)(=O)c2cccc3nsnc23)c2ccccc2)c1 (stereo unspecified) |  | inactive: -2.6% |
| Cc1ccc(C)c(N2CCN(CCCNC(=O)Cn3cccc3C(=O)c3ccccc3C)CC2)c1 |  | inactive: 5.4% |
| CN(C(=O)CSc1nc(N)c2c3c(sc2n1)CSC(C)(C)C3)c1ccccc1 | inconclusive: 20.6 µM [falling, single point] |  |
| Cc1ccc(Cn2cnc3c(oc4ccccc43)c2=O)cc1 |  | inactive: -3.29% |
| O=C(CSc1nnc(-c2ccc(F)cc2)c2ccccc12)Nc1ccccc1 |  | inactive: 2.14% |
| COc1ccc2nc(NC(=O)c3ccoc3C)sc2c1 | inconclusive: 2.59 µM [activator, full curve] |  |
| CCc1nnc(NC(=O)C2CC(=O)N(CCc3ccc(F)cc3)C2)s1 (stereo unspecified) | inconclusive: 6.51 µM [activator, single point] |  |
| O=C(CCCN1C(=O)/C(=C/c2ccccc2Cl)SC1=S)NCCCN1CCOCC1 | active: 14.6 µM |  |
| COc1ccc(C2=NN(c3nc(-c4ccc(CNC(C)=O)cc4)cs3)C(c3ccco3)C2)cc1 (stereo unspecified) | inconclusive: 25.9 µM [activator, single point] |  |

| Compound | Potency | activity change, negative = inhibition |
| --- | --- | --- |
| CNC(=S)N1CCN(S(=O)(=O)c2ccc3ccccc3c2)CC1 | active: 23.1 µM |  |
| CCCCCN=CC1=C(O)CC(c2ccccc2)CC1=O (stereo unspecified) | inconclusive: 0.731 µM [activator, full curve, poor fit] |  |
| CCCCOC(=O)c1ccc(NS(=O)(=O)c2cc(-c3nnnn3CC)ccc2OC)cc1 | inconclusive: 32.6 µM [falling, single point] |  |
| OC(COC(c1ccc(Cl)cc1)c1ccc(Cl)cc1)CN1CCCC1 (stereo unspecified) |  | inactive: -13.7% |
| Cc1nc(-c2ccccc2)sc1C1(C)CC(c2ccccc2F)=NO1 (stereo unspecified) | inconclusive: 13 µM [activator, partial curve] |  |
| Cc1ccc(NC(=O)c2ccc(-n3cccn3)c([N+](=O)[O-])c2)cc1 | inconclusive: 6.51 µM [falling, partial curve] |  |
| COc1ccc(CCNC(=O)CCc2cn(Cc3ccc(C)cc3)c3ccccc23)cc1OC |  | inactive: -13.7% |
| COC(=O)N1CCc2c(sc(NC(=O)C3COc4ccccc4O3)c2C(N)=O)C1 (stereo unspecified) | inconclusive: 29.1 µM [falling, single point] |  |
| CC1CCN(CC(=O)NNC(=O)c2cccc(Br)c2)CC1 | inconclusive: 6.51 µM [activator, single point] |  |
| COc1ccccc1NS(=O)(=O)c1cc(NC(=O)CNC(=O)c2ccc(C)s2)ccc1Cl | inconclusive: 18.4 µM [falling, single point] |  |
| C[C@H]1C[C@H]2[C@@H]3CCC4=CC(=O)C=C[C@]4(C)[C@@]3(Cl)[C@@H](O)C[C@]2(C)[C@@]1(O)C(=O)CO | active: 0.0146 µM |  |
| Cc1ccc2cc(CN(CCO)Cc3nnnn3Cc3ccc(F)cc3)c(=O)[nH]c2c1 |  | inactive: -13.9% |
| C/C(CC1CC(C)(C)OC1=O)=N\NC(N)=S (stereo unspecified) |  | inactive: 1.29% |
| CCC(Sc1nc2ccncc2[nH]1)C(=O)Nc1ccc(F)cc1 (stereo unspecified) |  | inactive: 5.72% |
| Cc1cccc(NC(=O)NNC(=O)c2ccc(C)c([N+](=O)[O-])c2)c1 | inconclusive: 8.2 µM [falling, full curve, poor fit] |  |
| NS(=O)(=O)c1ccc(CNS(=O)(=O)c2cc(Cl)ccc2Cl)cc1 |  | inactive: -17.3% |
| Cc1nc(Nc2ccc3c(c2)OCCO3)c2c(C)c(C)sc2n1 | inconclusive: 32.6 µM [falling, single point] |  |
| Cc1c(C(=O)Nc2ccc3c(c2)OCCO3)cnn1C | inconclusive: 18.4 µM [activator, partial curve] |  |
| Cn1nc(C(F)(F)F)cc1C(=O)Nc1ccc(-c2ccno2)cc1 | inconclusive: 14.6 µM [falling, partial curve, poor fit] |  |
| FC(F)(F)c1cc(C(F)(F)F)c2ccc(N/N=C/c3ccccc3)nc2n1 | inconclusive: 29.1 µM [activator, single point] |  |
| Cc1n[nH]c(=O)c2c(NC(=O)CSc3ccccc3Cl)oc(C)c12 | inconclusive: 32.6 µM [falling, single point] |  |
| COc1cc2ccccc2cc1C(=O)Nc1ccc(O)cc1 | inconclusive: 18.4 µM [activator, single point] |  |

Laid out differently: 5 of the compounds above.
Compound | Potency | activity change, negative = inhibition
C[C@H]1C[C@H]2[C@@H]3CCC4=CC(=O)C=C[C@]4(C)[C@@]3(Cl)[C@@H](O)C[C@]2(C)[C@@]1(O)C(=O)CO | active: 0.0146 µM | 
Cc1ccc2cc(CN(CCO)Cc3nnnn3Cc3ccc(F)cc3)c(=O)[nH]c2c1 |  | inactive: -13.9%
C/C(CC1CC(C)(C)OC1=O)=N\NC(N)=S (stereo unspecified) |  | inactive: 1.29%
CCC(Sc1nc2ccncc2[nH]1)C(=O)Nc1ccc(F)cc1 (stereo unspecified) |  | inactive: 5.72%
Cc1cccc(NC(=O)NNC(=O)c2ccc(C)c([N+](=O)[O-])c2)c1 | inconclusive: 8.2 µM [falling, full curve, poor fit] | 

Remaining list, next part

| Compound | Potency | activity change, negative = inhibition |
| --- | --- | --- |
| CC1(C)Cc2c(sc3ncnc(N)c23)CO1 |  | inactive: -19.8% |
| CCC1COCCS(=O)(=O)N1Cc1ccc(Cl)cc1 (stereo unspecified) | inconclusive: 8.2 µM [falling, partial curve] |  |
| O=C1CCN(Cc2ccccc2)CCN1CCSc1ccccc1 | inconclusive: 20.6 µM [activator, partial curve] |  |
| CCN(CC)c1ccc(NC(=O)COc2ccc(N(C)S(=O)(=O)c3cccs3)cc2)cc1 | inconclusive: 13 µM [falling, partial curve, poor fit] |  |
| Cc1ccc(C(C2=C(O)CC(C)(C)CC2=O)C2C(=O)CC(C)(C)CC2=O)s1 (stereo unspecified) |  | inactive: -9.79% |
| O=S(=O)(Nc1cccc2cccnc12)c1ccccc1Br | inconclusive: 29.1 µM [falling, single point] |  |
| O=C(Nc1nc(-c2ccc(-c3ccccc3)cc2)cs1)C1=COCCO1 | inconclusive: 14.6 µM [falling, partial curve, poor fit] |  |
| Cc1ccc2c(=O)c(C(=O)c3ccc(F)cc3)cn(CC(=O)NC3CCCCC3)c2n1 | inconclusive: 29.1 µM [activator, single point] |  |
| CC/C(C)=N\Nc1nc(-c2cc3cc(OC)ccc3oc2=O)cs1 | inconclusive: 23.1 µM [activator, single point] |  |
| CCOc1ccc(CNC(=O)c2cc3c(=O)n(Cc4cccs4)ccc3nc2C)cc1 | inconclusive: 0.13 µM [activator, full curve, poor fit] |  |
| Cc1ccc(CNC(=O)Nc2ccc3c(c2)N(C)C(=O)CS3)cc1 | inconclusive: 10.3 µM [falling, partial curve, poor fit] |  |
| COc1cccc(NC(=O)C2CC(=O)n3cnnc3S2)c1 (stereo unspecified) | inconclusive: 16.4 µM [activator, partial curve] |  |
| O=C(N/N=C\c1ccc(CNS(=O)(=O)c2ccc(Cl)cc2)o1)C(=O)Nc1ccc(Oc2ccccc2)cc1 | active: 16.4 µM |  |
| Cc1ccc(NC(=S)NC(=O)C2CCCCC2)c(Br)c1 | inconclusive: 7.31 µM [activator, partial curve] |  |
| CCCCn1c2ccccc2c2nnc(SCC(=O)Nc3ccc(NC(C)=O)cc3)nc21 | inconclusive: 1.46 µM [falling, partial curve, poor fit] |  |
| COc1ccc(-c2noc(CSc3nnc(Cc4ccccc4)n3-c3cccc(C)c3)n2)cc1OC | inconclusive: 29.1 µM [falling, single point] |  |
| Cc1ccc(-c2nn(-c3ccccc3)cc2/C=C2\SC(=S)N(CC(=O)O)C2=O)cc1 |  | inactive: -1.07% |
| CCOc1ccc(S(=O)(=O)NCc2cccs2)cc1C(C)C | inconclusive: 20.6 µM [falling, single point] |  |
| C#CCOCCOCCOCCNc1nc(N2CCN(C(=O)CCCCCCCCCCNC(=O)Cn3cc(CCCCCN)nn3)CC2)nc(N2CCN(C(=O)CCCCCCCCCCNC(=O)[C@H]([C@@H](C)CC)n3cc(CCCCN=C(N)N)nn3)CC2)n1 | inconclusive: 18.4 µM [falling, single point] |  |
| Cc1cc(Br)c(OCc2ccc(C(=O)N/N=C/c3ccc[nH]3)cc2)c(Br)c1 | active: 0.517 µM |  |
| COc1cccc2sc3ccc(C#CC4(N)CCCCC4)cc3c(=O)c12 | inconclusive: 23.1 µM [activator, single point] |  |
| CCOC(=O)N1CCN(c2ccc(C(=O)c3cccc(F)c3)cc2)CC1 | inconclusive: 18.4 µM [falling, single point] |  |
